# Measurements: the supplement of paper PMC3334620
# In all, about 33,000 sequences were measured (“E-score (-0.5 to 0.5)”: median about -0.0014, highest 2% from about 0.25 on). The list shows a part of the results.
# Molecular target: T1, Cad1 (UniProt P24813)
# T1 sequence: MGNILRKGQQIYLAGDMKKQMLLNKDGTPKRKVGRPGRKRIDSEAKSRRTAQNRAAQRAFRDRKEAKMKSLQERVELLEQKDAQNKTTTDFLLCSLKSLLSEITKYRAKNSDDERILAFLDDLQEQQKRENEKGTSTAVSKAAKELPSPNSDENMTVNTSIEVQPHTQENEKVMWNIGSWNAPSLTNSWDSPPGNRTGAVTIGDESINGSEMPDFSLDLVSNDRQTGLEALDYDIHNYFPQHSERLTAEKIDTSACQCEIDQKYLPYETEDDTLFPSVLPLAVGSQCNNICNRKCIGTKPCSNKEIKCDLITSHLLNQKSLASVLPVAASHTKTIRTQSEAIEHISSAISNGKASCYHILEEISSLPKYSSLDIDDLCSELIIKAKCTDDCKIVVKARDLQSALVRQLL
# Test: PBM E-score (8-mer binding enrichment) (E-score (-0.5 to 0.5)); higher = stronger / more preferred TF binding
# Conditions: protein concentration: 100 nM; construct: GST-full length
# In short: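 Yeast transcription factors carrying a GST tag, as full-length proteins or DNA-binding domains, were produced by PURExpress in vitro transcription/translation. About 100-200 nM protein was applied to universal all-10-mer Agilent arrays, double-stranded by primer extension on fresh or once-stripped slides. Bound protein was detected with fluorescent anti-GST, and scans were normalised with masliner. The Universal PBM Analysis Suite gave each ungapped eight-base word, pooled with its reverse complement, an E-score, a modified Wilcoxon-Mann-Whitney statistic.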
row,Sequence,PBM E-score
1,ATGATCAG,0.026
2,CTCAGTGA,-0.138
3,AAGTGCTC,-0.189
4,GCTGTAGA,-0.0692
5,ACAATTCT,0.0787
6,ACCACCAA,-0.0937
7,ATGTGAAA,0.0841
8,CTTGTAAA,0.0275
9,GCAGGGAA,0.0366
10,CTTCTACA,-0.151
11,CGCCAACA,0.157
12,GGGGAGGA,-0.117
13,AAAACCGT,0.069
14,AATCGGAA,0.211
15,AGCTTCCT,0.177
16,AGTAATGG,0.144
17,ATGGTTGG,-0.0997
18,GAACCTTA,0.127
19,AGGACCCG,-0.169
20,ATTTCGTG,0.202
21,ATCCACGC,0.00304
22,GTAATGAC,0.133
23,GTTTTACA,-0.156
24,CTCTATTC,-0.00496
25,CTTCTCAA,-0.089

row,Sequence,PBM E-score
1,ACGTGCTA,-0.0919
2,CACTGCGA,0.0309
3,CAATTCGC,0.322
4,GTAAGAGA,-0.125
5,CTGGGTTC,-0.0104
6,AGGAGACA,-0.0212
7,ACCTTTAT,-0.152
8,GCGTACCC,-0.157
9,GTCTAAGA,0.151
10,GTAGGTTA,-0.0515
11,GCATCGGC,-0.0762
12,GGCGGAGA,0.0169
13,CGCGTTGA,0.158
14,CCGAAGAC,-0.0256
15,GGAAGCCC,-0.23
16,CTCTAGCC,-0.152
17,ATCCAGGC,-0.127
18,AACCCGAG,0.122
19,CTCGCCGC,0.106
20,CGTAGAGA,-0.0362
21,ACCGGAGA,0.0736
22,GCCCTCAA,-0.256
23,CTGTCGTA,-0.188
24,CGATATAC,-0.00158
25,GGTCCCTA,-0.242

row,Sequence,PBM E-score
1,GACGCGTC,0.0124
2,CGGCTAAA,-0.0162
3,ACTAGAAG,-0.175
4,GTTCCGTA,0.226
5,AGGATGCG,-0.0999
6,AAAAAGAT,0.0116
7,AGGAAGTA,-0.0785
8,CTCCCCGC,0.0619
9,AACATGCG,0.0846
10,CCTAACGA,-0.0196
11,AAAAGGGA,-0.24
12,AAACACTA,0.162
13,GTATACCA,-0.0671
14,GGCCCCGA,-0.124
15,GAACCAGA,-0.0574
16,AGATAGAG,0.0226
17,CAAGTTCC,-0.0154
18,AAGTAGCG,-0.115
19,CGGTCAAG,-0.0739
20,ACGCATCA,0.133
21,CAGTTGAA,-0.0352
22,ACTGTAAC,-0.0789
23,CGGGTGCC,-0.161
24,AGTTTTAC,0.109
25,CTTGACCA,-0.19

# 53 entries from above in another layout:
row	Sequence	PBM E-score
7	ATGTGAAA	0.0841
8	CTTGTAAA	0.0275
9	GCAGGGAA	0.0366
10	CTTCTACA	-0.151
11	CGCCAACA	0.157
12	GGGGAGGA	-0.117
13	AAAACCGT	0.069
14	AATCGGAA	0.211
15	AGCTTCCT	0.177
16	AGTAATGG	0.144
17	ATGGTTGG	-0.0997
18	GAACCTTA	0.127
19	AGGACCCG	-0.169
20	ATTTCGTG	0.202
21	ATCCACGC	0.00304
22	GTAATGAC	0.133
23	GTTTTACA	-0.156
24	CTCTATTC	-0.00496
25	CTTCTCAA	-0.089
1	ACGTGCTA	-0.0919
2	CACTGCGA	0.0309
3	CAATTCGC	0.322
4	GTAAGAGA	-0.125
5	CTGGGTTC	-0.0104
6	AGGAGACA	-0.0212
7	ACCTTTAT	-0.152
8	GCGTACCC	-0.157
9	GTCTAAGA	0.151
10	GTAGGTTA	-0.0515
11	GCATCGGC	-0.0762
12	GGCGGAGA	0.0169
13	CGCGTTGA	0.158
14	CCGAAGAC	-0.0256
15	GGAAGCCC	-0.23
16	CTCTAGCC	-0.152
17	ATCCAGGC	-0.127
18	AACCCGAG	0.122
19	CTCGCCGC	0.106
20	CGTAGAGA	-0.0362
21	ACCGGAGA	0.0736
22	GCCCTCAA	-0.256
23	CTGTCGTA	-0.188
24	CGATATAC	-0.00158
25	GGTCCCTA	-0.242
1	GACGCGTC	0.0124
2	CGGCTAAA	-0.0162
3	ACTAGAAG	-0.175
4	GTTCCGTA	0.226
5	AGGATGCG	-0.0999
6	AAAAAGAT	0.0116
7	AGGAAGTA	-0.0785
8	CTCCCCGC	0.0619
9	AACATGCG	0.0846

# More records follow.

row,Sequence,PBM E-score
1,CGCGTTGC,0.185
2,ATGGCACC,-0.0307
3,ACGTGGTG,-0.107
4,TGTTTGAA,0.106
5,AGAATTCG,0.051
6,GGGGGTCA,-0.432
7,CCCACGGG,-0.247
8,ACCAGTGC,-0.146
9,AAGTGAGT,0.0529
10,CGGTAAGA,0.0804
11,GTGCACTA,0.242
12,GCTGTCAA,0.0138
13,AAGGAAGG,-0.134
14,TCAGAACA,0.0782
15,CACTAGTC,-0.0178
16,CAAGCTCC,-0.285
17,AACTGTGC,-0.0663
18,GGCACCAC,-0.0955
19,AATTCCCT,-0.0367
20,CATTGCGC,0.134
21,ATAGACCA,0.0503
22,TCCCCAGA,-0.109
23,ATCACCGA,0.12
24,GCGAGTAA,0.147
25,TAAGTATA,0.221

row,Sequence,PBM E-score
1,AGGCGCCC,-0.218
2,CGACAGTA,0.0498
3,ACAAAGTA,0.193
4,AGTACATC,-0.0878
5,AACACACC,0.18
6,ATATTGCC,-0.0802
7,CGGCTGGA,-0.143
8,ACGCCCAA,-0.142
9,AAAGTAAC,0.0974
10,ACCTCTAG,-0.147
11,AGTGAATA,0.0196
12,GGCGCAAC,0.0646
13,AGTAATAC,0.21
14,CAGTGGGA,-0.203
15,GGGTTGGA,-0.0426
16,CATCAAAC,-0.0197
17,AAATAGTG,0.258
18,CCCACAAA,0.0628
19,CTTACGGA,0.0215
20,CGGAGAAG,-0.0467
21,GACTGGAA,-0.168
22,AGTAAGAT,0.0748
23,CTCCTGGC,-0.0344
24,AACTCTCA,0.135
25,GGTTGTTA,0.102

row,Sequence,PBM E-score
1,CGAACCAG,0.142
2,AATGCAAT,-0.154
3,CCCTGTCA,-0.131
4,ATCGAGCG,0.156
5,AGGGCAGA,-0.132
6,ACCCTGGA,-0.152
7,TCTACCAA,0.128
8,AGTACCCG,-0.045
9,ACGGTTGA,-0.0175
10,AAAATTCA,0.284
11,CAAAGGTC,-0.202
12,GATCTACA,0.0317
13,ACAGACCT,0.206
14,GGGAACGA,0.0191
15,AGTCTTCG,0.043
16,AATCGGAT,0.283
17,CCAGTCGA,-0.0359
18,GCGTGCTA,-0.114
19,ATAGATGG,-0.259
20,CTGCTCTA,-0.00251
21,CATGTTCC,-0.00232
22,CACCTATG,-0.18
23,ACCTGTCA,-0.0819
24,ACACCTAG,-0.123
25,CGGCACGA,0.0949

row,Sequence,PBM E-score
1,CGGTAGTA,-0.0186
2,CCAGTCTA,-0.0582
3,GCTTGTGA,-0.0693
4,CAATTATA,0.161
5,CGCCTTTA,0.0567
6,AAATCTAC,0.0177
7,GCTGCCTA,-0.0988
8,ACGGGTGC,-0.0882
9,AAAATAGT,0.118
10,ATCTCGTC,0.0718
11,CCACTGCG,0.0354
12,AGCCCAAG,-0.159
13,CAGTGTTC,0.176
14,AAATCTGT,0.131
15,CCTGATAC,0.153
16,GAGCGGCC,-0.145
17,ACAAGCGA,0.08
18,AGGTCCAC,-0.258
19,GATCTCTA,-0.00974
20,CCTTCGAC,-0.0612
21,CACGCTGC,-0.0829
22,ACTTAACG,-0.0498
